Results deposited as PubChem BioAssay AID1224828 (NIAID, 2016)
In all, the deposit lists about 17,000 reagents; this is a random part of them. Over the whole deposit, 762 (4.5%) were called active. 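Active calls include both raised and lowered p65 entry, mostly lowered; wells with fewer than 50 cells lack a z-score.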 Raw values vary from plate to plate and are shown uncorrected. Reagents against one gene are numbered here.

- Purpose: 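Find genes required for NF-kappaB p65 moving into the nucleus after LPS in mouse macrophages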 (primary screen)
- Cells: mouse RAW264.7 G9 macrophage reporter cells (GFP-p65, Tnf promoter-mCherry)
- Knock-down reagent: siRNA pool against mouse genes, 100 nM
- Timing: 2 days siRNA transfection, then 40 min LPS before fixation
- Treatment: LPS (Salmonella minnesota R595) at 10 ng/ml
- Measurement: 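Imaged p65 nuclear translocation ratio, normalised to the plate median, converted to robust z-scores and averaged across two replicates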
- Scale: p65 translocation robust z-score: higher = more nuclear NF-kappaB p65 after LPS than the plate median; nuclear/cytoplasmic p65 ratio: higher = more nuclear NF-kappaB p65
- Call rule: 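Called active when z exceeds 3.3 or falls under -1.56 (median of Tlr4 controls), giving activity score of at least 50; no calls for control wells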
- Calls: active = hit (p65 shift raised or lowered); inactive = no clear change

The opening 3 records, ahead of the listing:
no.	gene knocked down	reagent	p65 translocation robust z-score	nuclear/cytoplasmic p65 ratio, rep 1	nuclear/cytoplasmic p65 ratio, rep 2	low cell count flag	Call
1	Ddx39a (GeneID 68278)	1	0.21	1.59	1.59	enough cells to score	inactive
2	Prb1b (GeneID 381832)	1	-0.69	1.24	1.18	enough cells to score	inactive
3	Prb1b (GeneID 381832)	2	-0.94	1.32	1.5	enough cells to score	inactive

Main list, from the start:
no.	gene knocked down	reagent	p65 translocation robust z-score	nuclear/cytoplasmic p65 ratio, rep 1	nuclear/cytoplasmic p65 ratio, rep 2	low cell count flag	Call
1	Ddx39a (GeneID 68278)	1	0.21	1.59	1.59	enough cells to score	inactive
2	Prb1b (GeneID 381832)	1	-0.69	1.24	1.18	enough cells to score	inactive
3	Prb1b (GeneID 381832)	2	-0.94	1.32	1.5	enough cells to score	inactive
4	Rundc1 (GeneID 217201)	1	-1.15	1.42	1.36	enough cells to score	inactive
5	Ncam1 (GeneID 17967)	1	-0.61	1.29	1.33	enough cells to score	inactive
6	Or51l14 (GeneID 259098)	1		1.72	1.31	fewer than 50 cells per well; well left out of scoring	inactive
7	H1f2 (GeneID 50708)	1	-0.45	1.17	1.33	enough cells to score	inactive
8	Prkca (GeneID 18750)	1		1.89	1.25	fewer than 50 cells per well; well left out of scoring	inactive
9	Mis12 (GeneID 67139)	1		1.23	1.4	fewer than 50 cells per well; well left out of scoring	inactive
10	Tekt2 (GeneID 24084)	1	1.18	1.48	1.35	enough cells to score	inactive
11	Papolb (GeneID 56522)	1	-0.86	1.32	1.1	enough cells to score	inactive
12	Chd6 (GeneID 71389)	1	1.23	1.55	1.59	enough cells to score	inactive
13	Cert1 (GeneID 68018)	1	0.41	1.75	1.44	enough cells to score	inactive
14	Samd14 (GeneID 217125)	1	-1.67	1.36	1.53	enough cells to score	active
15	Vmn1r222 (GeneID 171274)	1		1.22	1.12	fewer than 50 cells per well; well left out of scoring	inactive
16	Hmga2 (GeneID 15364)	1	1.02	1.6	1.48	enough cells to score	inactive
17	Efcab6 (GeneID 77627)	1		1.24	1.08	fewer than 50 cells per well; well left out of scoring	inactive
18	Dctn1 (GeneID 13191)	1	-0.76	1.4	1.24	enough cells to score	inactive
19	Gdap2 (GeneID 14547)	1	0.16	1.54	1.55	enough cells to score	inactive
20	Klra15 (GeneID 27423)	1	0.43	1.6	1.37	enough cells to score	inactive
21	Lman1l (GeneID 235416)	1	-0.17	1.58	1.78	enough cells to score	inactive
22	Hrh3 (GeneID 99296)	1	-1.27	1.38	1.34	enough cells to score	inactive
23	Fasl (GeneID 14103)	1	-1.77	1.29	1.25	enough cells to score	active
24	Rhbdf1 (GeneID 13650)	1	-0.83	1.29	1.13	enough cells to score	inactive
25	Rps19bp1 (GeneID 66538)	1		1.23	1.11	fewer than 50 cells per well; well left out of scoring	inactive
26	Hnrnpd (GeneID 11991)	1		1.18	1.11	fewer than 50 cells per well; well left out of scoring	inactive
27	Hrnr (GeneID 68723)	1	-0.35	1.42	1.47	enough cells to score	inactive
28	Tbc1d9 (GeneID 71310)	1	0.64	1.8	1.62	enough cells to score	inactive
29	St6galnac1 (GeneID 20445)	1	1.31	1.55	1.41	enough cells to score	inactive
30	Ppp2r5d (GeneID 21770)	1	-0.21	1.44	1.41	enough cells to score	inactive
31	Rnf138rt1 (GeneID 74264)	1		1.41	1.37	fewer than 50 cells per well; well left out of scoring	inactive
32	Cdv3 (GeneID 321022)	1	-1.06	1.48	1.56	enough cells to score	inactive
33	Actr2 (GeneID 66713)	1	0.09	1.62	1.64	enough cells to score	inactive
34	Chchd10 (GeneID 103172)	1		1.88	1.75	fewer than 50 cells per well; well left out of scoring	inactive
35	Vars1 (GeneID 22321)	1	-0.5	1.26	1.17	enough cells to score	inactive
36	Avpi1 (GeneID 69534)	1	0.41	1.74	1.49	enough cells to score	inactive
37	Ctsq (GeneID 104002)	1	-1.43	1.3	1.62	enough cells to score	inactive
38	Or8a1b (GeneID 80706)	1		1.52	1.24	fewer than 50 cells per well; well left out of scoring	inactive
39	Acyp1 (GeneID 66204)	1	-0.67	1.56	1.48	enough cells to score	inactive
40	Usp27x (GeneID 54651)	1	-0.85	1.24	1.16	enough cells to score	inactive
41	R3hdm2 (GeneID 71750)	1	-1.56	1.28	1.28	enough cells to score	inactive
42	2410004B18Rik (GeneID 66421)	1		1.25	1.37	fewer than 50 cells per well; well left out of scoring	inactive
43	Ccr4 (GeneID 12773)	1	0.72	1.58	1.71	enough cells to score	inactive
44	Epcip (GeneID 74387)	1		1.14	1.12	fewer than 50 cells per well; well left out of scoring	inactive
45	Or2a57 (GeneID 18346)	1	0.06	1.42	1.28	enough cells to score	inactive
46	Awat2 (GeneID 245532)	1		1.53	1.71	fewer than 50 cells per well; well left out of scoring	inactive
47	Man1c1 (GeneID 230815)	1	-0.44	1.7	1.44	enough cells to score	inactive
48	Snx24 (GeneID 69226)	1		1.22	1.17	fewer than 50 cells per well; well left out of scoring	inactive
49	Zfyve9 (GeneID 230597)	1	1.19	1.62	1.52	enough cells to score	inactive
50	Mrgprf (GeneID 211577)	1	1.36	1.67	1.82	enough cells to score	inactive
51	Ak1 (GeneID 11636)	1	-0.18	2.13	1.36	enough cells to score	inactive
52	Zfp428 (GeneID 232969)	1	-2.21	1.14	1.13	enough cells to score	active
53	Fbln1 (GeneID 14114)	1	1.32	1.75	1.44	enough cells to score	inactive
54	Lrrc3b (GeneID 218763)	1	-0.74	1.53	1.65	enough cells to score	inactive
55	Nyx (GeneID 236690)	1	-0.67	1.38	1.31	enough cells to score	inactive
56	Tas2r117 (GeneID 353166)	1	0.95	1.56	1.23	enough cells to score	inactive
57	Mettl6 (GeneID 67011)	1	-1.17	1.34	1.25	enough cells to score	inactive
58	Bmp7 (GeneID 12162)	1	0.22	1.66	1.63	enough cells to score	inactive
59	Grik5 (GeneID 14809)	1	0.02	1.45	1.36	enough cells to score	inactive
